Measured values from PMC8501799, “Constitutive signal bias mediated by the human GHRHR splice variant 1” (Proceedings of the National Academy of Sciences of the …, 2021).
Residue numbers refer to the chain shown, from its start. Results are given in words; binding and its absence hold for the method and conditions named. Binding seen in cells or lysates may run through a third protein. Some entries that bind do so weakly or less than the wild type. For some assays here: Tags and fused reporters may be left off the sequences shown.

Chains of the proteins cited; added tags and fusions are not shown.
UniProt P49407: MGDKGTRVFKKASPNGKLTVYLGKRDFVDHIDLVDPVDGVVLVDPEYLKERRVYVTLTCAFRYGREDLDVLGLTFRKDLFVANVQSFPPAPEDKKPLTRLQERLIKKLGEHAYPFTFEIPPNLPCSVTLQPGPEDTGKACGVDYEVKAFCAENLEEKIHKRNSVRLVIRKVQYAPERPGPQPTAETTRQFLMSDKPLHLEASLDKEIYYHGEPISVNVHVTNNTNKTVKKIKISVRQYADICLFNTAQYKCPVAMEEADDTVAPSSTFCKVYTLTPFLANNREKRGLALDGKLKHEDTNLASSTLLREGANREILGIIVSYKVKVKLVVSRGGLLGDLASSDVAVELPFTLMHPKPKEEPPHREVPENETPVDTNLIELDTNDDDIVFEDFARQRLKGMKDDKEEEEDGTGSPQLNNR

What was measured:
Test in all cases: FRET or BRET; β-arrestin 1/2 recruitment assay in live HEK293T cells co-transfected with receptor-Rluc8 and β-arrestin 1/2-Venus (1:9 mass ratio); coelenterazine h; started with 250 μM GHRH; AUC of the BRET time course (535 nm/470 nm) normalised to WT GHRHR = 100%
GHRHR N296A (human) = target: T1, GHRHR N296A (human) (UniProt Q02643)
T1 sequence: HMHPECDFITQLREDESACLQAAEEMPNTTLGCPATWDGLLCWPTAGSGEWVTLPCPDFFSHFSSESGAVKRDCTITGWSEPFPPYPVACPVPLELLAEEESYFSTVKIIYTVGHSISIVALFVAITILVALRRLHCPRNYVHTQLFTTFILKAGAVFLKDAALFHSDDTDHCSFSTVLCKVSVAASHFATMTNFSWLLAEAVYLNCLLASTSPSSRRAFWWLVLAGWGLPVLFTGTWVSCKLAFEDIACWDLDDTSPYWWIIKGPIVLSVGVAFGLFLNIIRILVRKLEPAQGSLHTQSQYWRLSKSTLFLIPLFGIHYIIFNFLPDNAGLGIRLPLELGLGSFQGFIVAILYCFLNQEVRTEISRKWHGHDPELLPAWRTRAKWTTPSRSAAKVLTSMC

[1] = target: T2, HA-Flag-GHRHR-Rluc8 (human) (UniProt Q02643)
T2 sequence: T1 sequence with A274N

GHRHR F85A (human) = target: T3, GHRHR F85A (human) (UniProt Q02643)
T3 sequence: T1 sequence with F63A, A274N

GHRHR L337A (human) = target: T4, GHRHR L337A (human) (UniProt Q02643)
T4 sequence: T1 sequence with A274N, L315A

GHRHR F338A (human) = target: T5, GHRHR F338A (human) (UniProt Q02643)
T5 sequence: T1 sequence with A274N, F316A

Measured: binding

β-arrestin 1-Venus (from UniProt P49407 1-418)
binds: all assays above
